# PubChem BioAssay AID1259254 | NCATS, 2017
# Screen: 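Genome-wide screen for genes that prevent DNA re-replication in cancer cells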 (primary screen)
# Cells: human HCT116 colorectal cancer cells
# Knock-down reagent: single siRNA against human genes
# Time to read-out: 3 days
# Detection: 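Nuclei stained with Hoechst and imaged; cell-cycle phase assigned by DNA content; G2 share scaled per plate, non-targeting siRNA 0%, GMNN siRNA 100%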
# Direction: G2 robust z-score and G2 cells, % of GMNN control: higher = more G2 cells, more excess DNA replication; raw share of cells in G2: higher = larger share of cells with G2 DNA content
# Hit rule: 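Active siRNAs have a G2 robust z of 5 or more median absolute deviations over the median, which in these data means about 38% or higher of GMNN control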
# The deposit covers about 59,000 reagents; shown is an unselected part. In the full data, about 1,550 (2.6%) are marked active. 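G2 share is only a proxy for re-replication; each gene was hit by three separate siRNAs, and active genes were retested.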 Raw values are not corrected between plates. A number with no mark means an inactive call. Reagents against one gene are numbered here. Reagent sequences are not shown. Not stated in the record: the amount of reagent.
Gene,siRNA no.,G2 robust z-score,"G2 cells, % of GMNN control",raw share of cells in G2 (%)
CCIN (calicin),1,-0.448,-0.182,4.66
CCIN (calicin),2,0.702,7.91,7.89
CCIN (calicin),3,-0.204,1.53,4.56
ABCC9 (ATP binding cassette subfamily C member 9),1,3.74,29.3,13.2
ABCC9 (ATP binding cassette subfamily C member 9),2,3.6,28.3,16.2
ABCC9 (ATP binding cassette subfamily C member 9),3,0.0444,3.28,6.44
LOC651337,1,0.523,6.65,6.22
LOC651337,2,0.0795,3.53,4.47
LOC651337,3,0.624,7.36,4.96
LMNB1 (lamin B1),1,-1.02,-4.22,3.73
LMNB1 (lamin B1),2,1.13,10.9,6.79
LMNB1 (lamin B1),3,1.04,10.3,9.56
FOXA3 (forkhead box A3),1,1.05,10.4,9.63
FOXA3 (forkhead box A3),2,-0.972,-3.87,3.64
FOXA3 (forkhead box A3),3,-1.14,-5.03,2.36
N4BP2 (NEDD4 binding protein 2),1,-0.332,0.632,4.77
N4BP2 (NEDD4 binding protein 2),2,-0.836,-2.92,2.93
N4BP2 (NEDD4 binding protein 2),3,0.291,5.01,4.74
ANKRD23 (ankyrin repeat domain 23),1,-0.161,1.83,3.34
ANKRD23 (ankyrin repeat domain 23),2,0.712,7.98,6.46
ANKRD23 (ankyrin repeat domain 23),3,-0.817,-2.78,2.03
MMP23B (matrix metallopeptidase 23B),1,6.03 (active),45.4,21.4
MMP23B (matrix metallopeptidase 23B),2,-1.22,-5.62,2.92
MMP23B (matrix metallopeptidase 23B),3,-0.851,-3.02,2.78
LSM7,1,-0.669,-1.74,3.13
LSM7,2,1.29,12.1,11.4
LSM7,3,2.41,19.9,11.6
ME1 (malic enzyme 1),1,-0.757,-2.36,4.54
ME1 (malic enzyme 1),2,0.384,5.67,7.55
ME1 (malic enzyme 1),3,0.808,8.65,6.05
COXFA4 (cytochrome c oxidase associated subunit FA4),1,-0.591,-1.19,2.8
COXFA4 (cytochrome c oxidase associated subunit FA4),2,1.63,14.5,11.2
COXFA4 (cytochrome c oxidase associated subunit FA4),3,1.74,15.2,11.2
"ST6GAL2 (ST6 beta-galactoside alpha-2,6-sialyltransferase 2)",1,-0.569,-1.03,5
"ST6GAL2 (ST6 beta-galactoside alpha-2,6-sialyltransferase 2)",2,-0.879,-3.22,3.03
"ST6GAL2 (ST6 beta-galactoside alpha-2,6-sialyltransferase 2)",3,0.00246,2.98,5.89
DYNLT2B (dynein light chain Tctex-type 2B),1,0.354,5.46,5.56
DYNLT2B (dynein light chain Tctex-type 2B),2,1.33,12.3,7.36
DYNLT2B (dynein light chain Tctex-type 2B),3,0.138,3.94,4.45
GPR25 (G protein-coupled receptor 25),1,-0.0579,2.56,4.05
GPR25 (G protein-coupled receptor 25),2,-0.634,-1.49,4
GPR25 (G protein-coupled receptor 25),3,-0.364,0.405,5.99
FAM215B (family with sequence similarity 215 member B),1,0.136,3.93,5.13
FAM215B (family with sequence similarity 215 member B),2,4.08,31.7,14.7
FAM215B (family with sequence similarity 215 member B),3,-0.615,-1.36,2.75

Reagents listed above called active, once more:
Gene,siRNA no.,G2 robust z-score,"G2 cells, % of GMNN control",raw share of cells in G2 (%)
MMP23B (matrix metallopeptidase 23B),1,6.03 (active),45.4,21.4

The results go on.
Gene,siRNA no.,G2 robust z-score,"G2 cells, % of GMNN control",raw share of cells in G2 (%)
C8orf58 (chromosome 8 open reading frame 58),1,1.24,11.7,8.14
C8orf58 (chromosome 8 open reading frame 58),2,-1.13,-4.98,1.53
C8orf58 (chromosome 8 open reading frame 58),3,0.387,5.69,5.05
PPP1R21 (protein phosphatase 1 regulatory subunit 21),1,0.27,4.86,6.01
PPP1R21 (protein phosphatase 1 regulatory subunit 21),2,0.382,5.66,4.9
PPP1R21 (protein phosphatase 1 regulatory subunit 21),3,-0.0434,2.66,3.54
ANKRD12 (ankyrin repeat domain 12),1,-0.886,-3.26,3.71
ANKRD12 (ankyrin repeat domain 12),2,0.0591,3.38,5.53
ANKRD12 (ankyrin repeat domain 12),3,-0.465,-0.305,3.06
ABCA9 (ATP binding cassette subfamily A member 9),1,-1.33,-6.42,2.9
ABCA9 (ATP binding cassette subfamily A member 9),2,-0.776,-2.49,3.04
ABCA9 (ATP binding cassette subfamily A member 9),3,-0.129,2.06,7.29
TRIM3 (tripartite motif containing 3),1,-1.01,-4.11,4.86
TRIM3 (tripartite motif containing 3),2,1.53,13.7,8.28
TRIM3 (tripartite motif containing 3),3,-0.691,-1.89,4.87
WTAP (WT1 associated protein),1,1.79,15.6,12.4
WTAP (WT1 associated protein),2,0.58,7.05,6.89
WTAP (WT1 associated protein),3,5.97 (active),45,19.8
BMAL2 (basic helix-loop-helix ARNT like 2),1,-0.524,-0.72,2.54
BMAL2 (basic helix-loop-helix ARNT like 2),2,5.28 (active),40.1,24
BMAL2 (basic helix-loop-helix ARNT like 2),3,1.4,12.8,7.66
URAD,1,-0.871,-3.16,2.58
URAD,2,-0.748,-2.29,2.37
URAD,3,4.22,32.6,13.4
CFAP57 (cilia and flagella associated protein 57),1,0.0918,3.61,5.04
CFAP57 (cilia and flagella associated protein 57),2,1.54,13.8,7.18
CFAP57 (cilia and flagella associated protein 57),3,0.282,4.95,4.8
CHEK2P2 (CHEK2 pseudogene 2),1,1.04,10.3,6.31
CHEK2P2 (CHEK2 pseudogene 2),2,-0.335,0.612,4.01
CHEK2P2 (CHEK2 pseudogene 2),3,4.14,32.1,15.1
HMGN1P21,1,1.08,10.6,7.55
HMGN1P21,2,0.338,5.35,4.76
HMGN1P21,3,-0.805,-2.69,2.58
SSTR3 (somatostatin receptor 3),1,1.23,11.6,10
SSTR3 (somatostatin receptor 3),2,-1.4,-6.89,2.11
SSTR3 (somatostatin receptor 3),3,0.503,6.51,5.26
MAG (myelin associated glycoprotein),1,-0.688,-1.87,4.64
MAG (myelin associated glycoprotein),2,-0.0871,2.35,3.97
MAG (myelin associated glycoprotein),3,-0.0979,2.28,6.37
METTL3,1,-0.673,-1.77,3.81
METTL3,2,-0.607,-1.31,3.79
METTL3,3,2.91,23.4,16.7
